{
  "sequences": {"note": "The chains behind the UniProt entries cited, without tags or fusion partners. Where a name states a change or a piece, a line headed by the entry shows the natural chain unless it says otherwise. Residues count along the entry.", "UniProt P26039, residues 309-405": "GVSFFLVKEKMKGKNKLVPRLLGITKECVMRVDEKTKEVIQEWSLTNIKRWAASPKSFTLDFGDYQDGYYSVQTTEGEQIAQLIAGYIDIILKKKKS", "Full-length β3 integrin cytoplasmic tail (P05106, residues 742-788)": "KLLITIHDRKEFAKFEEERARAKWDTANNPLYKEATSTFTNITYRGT", "MP peptide (membrane-proximal β3 integrin tail peptide) (P05106, residues 742-765)": "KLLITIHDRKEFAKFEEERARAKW", "UniProt O70161": "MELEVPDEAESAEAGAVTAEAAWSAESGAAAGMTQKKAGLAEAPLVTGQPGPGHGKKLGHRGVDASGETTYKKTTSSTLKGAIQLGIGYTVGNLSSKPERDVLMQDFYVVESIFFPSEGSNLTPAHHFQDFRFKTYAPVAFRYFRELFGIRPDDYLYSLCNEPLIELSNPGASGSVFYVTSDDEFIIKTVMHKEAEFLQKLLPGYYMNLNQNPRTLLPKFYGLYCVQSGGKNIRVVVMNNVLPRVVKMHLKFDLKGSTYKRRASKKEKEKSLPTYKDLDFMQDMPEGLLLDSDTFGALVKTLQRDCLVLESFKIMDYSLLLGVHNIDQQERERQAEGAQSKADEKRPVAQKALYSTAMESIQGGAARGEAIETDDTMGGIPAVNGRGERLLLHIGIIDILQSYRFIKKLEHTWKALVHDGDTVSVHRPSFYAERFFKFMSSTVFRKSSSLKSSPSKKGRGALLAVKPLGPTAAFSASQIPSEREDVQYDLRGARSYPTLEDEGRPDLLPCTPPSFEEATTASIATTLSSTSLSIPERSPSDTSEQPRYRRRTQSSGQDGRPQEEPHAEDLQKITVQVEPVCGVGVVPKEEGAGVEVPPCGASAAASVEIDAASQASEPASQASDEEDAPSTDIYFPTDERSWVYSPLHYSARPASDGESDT"},
  "source": "patent US20100210525A1",
  "about": "(University of California, published 2010)",
  "key": {"[1]": {"target": "T1, Talin F3 sub-domain, wild type (mouse, UniProt P26039 309-405, limits assumed)", "T1 construct": "domain: F3 sub-domain; U-15N labelled for NMR; also called Talin F3 wt; talin F3 domain", "test": "1H-15N HSQC NMR, decrease in peak height; intermediate exchange"}, "[2]": {"target": "T1, Talin F3 sub-domain, wild type", "test": "1H-15N HSQC NMR of 15N talin F3 on addition of the peptide, % decrease of peak intensity per residue [second panel]"}, "[3]": {"target": "T1, Talin F3 sub-domain, wild type", "test": "1H-15N HSQC NMR titration of 15N talin F3 with the peptide, weighted shift map per residue"}, "[4]": {"target": "T1, Talin F3 sub-domain, wild type", "test": "1H-15N HSQC NMR titration of talin F3"}, "[5]": {"target": "T1, Talin F3 sub-domain, wild type", "test": "1H-15N HSQC NMR titration of 15N talin F3 with the peptide, weighted shift map per residue [first panel]"}, "[6]": {"target": "T1, Talin F3 sub-domain, wild type", "test": "heteronuclear 15N-1H NOEs of talin F3 in complex with the peptide"}, "[7]": {"target": "T1, Talin F3 sub-domain, wild type", "test": "1H-15N HSQC NMR of 15N talin F3 on addition of the peptide, weighted shift map per residue [fourth panel]"}},
  "note": "These are yes or no findings as the source states them, for the method shown. Some binding calls cover weakened binding; strength is not graded here.",
  "data": [
    {"molecule": "Full-length β3 integrin cytoplasmic tail (from UniProt P05106 742-788) (peptide)", "values": [
      {"measurement": "binding", "setting": "[1]", "value": "binds"},
      {"measurement": "binding", "setting": "[2]", "value": "binds"}
    ]},
    {"molecule": "MP peptide (membrane-proximal β3 integrin tail peptide) (from UniProt P05106 742-765)", "values": [
      {"measurement": "binding", "setting": "[3]", "value": "binds"},
      {"measurement": "binding", "setting": "[4]", "value": "binds"},
      {"measurement": "binding", "setting": "[5]", "value": "binds"}
    ]},
    {"molecule": "WVYSPLHYSARPA (peptide, UniProt O70161 642-654, looked up)", "note": "[PIPKIγ peptide]", "values": [
      {"measurement": "binding", "setting": "[6]", "value": "binds"},
      {"measurement": "binding", "setting": "[7]", "value": "binds"}
    ]}
  ]
}
